Experimental data published in patent US5391552A, “Diphenylpiperazine derivative and drug for circulatory organ containing the same” (Pola Chemical Industries, Inc., priority 1990, dated 1995).

System: calcium
Assay: Antagonism against calcium: inhibition of KCl-induced contraction of rat aorta ring specimens (Magnus tube, Test Example 1)
Set-up: species or system Male Wistar rats
Settings: inhibits 50% of the maximum contraction by KCl (10-60 mM); rat aorta rings, 37 °C; read-out: 50% inhibitory concentration
Description: A test for antagonism against calcium of a diphenylpiperazine derivative according to the present invention and furnarizine was carried out as follows.
Male Wistar rats (300-350g) were exsanguinated to death and submitted to thoracotomy to take off aortae. Ring specimens having a width of 3 to 4 mm were prepared from the aortae. The specimen was suspended in a Magnus tube which was filled with Krebs Henseleit liquid of 37°±0.5° C., aerated with a mixing gas (95% of O2 and 5% of CO2) flowing in the liquid. A load of approximately 2 g was given to the specimen, and a tension variation was isometrically recorded.
The calcium antagonism was indicated by the concentration (M) of a testing agent which inhibits 50% of the maximum contraction of concentration-dependent-contraction (10-60 mM) of KCl, and the results were shown in Table 1.

Fc1ccc(C(c2ccc(F)cc2)N2CCN(C/C=C/c3ccccc3)CC2)cc1 [Furnarizine, furnarizine, reference compound]
IC50: 1600 nM
